This passage reports binding results from article doi:10.1101/2021.08.04.455032.

The chains behind the UniProt entries cited, without tags or fusion partners. Where a name states a change or a piece, a line headed by the entry shows the natural chain unless it says otherwise.
UniProt Q8IYS0: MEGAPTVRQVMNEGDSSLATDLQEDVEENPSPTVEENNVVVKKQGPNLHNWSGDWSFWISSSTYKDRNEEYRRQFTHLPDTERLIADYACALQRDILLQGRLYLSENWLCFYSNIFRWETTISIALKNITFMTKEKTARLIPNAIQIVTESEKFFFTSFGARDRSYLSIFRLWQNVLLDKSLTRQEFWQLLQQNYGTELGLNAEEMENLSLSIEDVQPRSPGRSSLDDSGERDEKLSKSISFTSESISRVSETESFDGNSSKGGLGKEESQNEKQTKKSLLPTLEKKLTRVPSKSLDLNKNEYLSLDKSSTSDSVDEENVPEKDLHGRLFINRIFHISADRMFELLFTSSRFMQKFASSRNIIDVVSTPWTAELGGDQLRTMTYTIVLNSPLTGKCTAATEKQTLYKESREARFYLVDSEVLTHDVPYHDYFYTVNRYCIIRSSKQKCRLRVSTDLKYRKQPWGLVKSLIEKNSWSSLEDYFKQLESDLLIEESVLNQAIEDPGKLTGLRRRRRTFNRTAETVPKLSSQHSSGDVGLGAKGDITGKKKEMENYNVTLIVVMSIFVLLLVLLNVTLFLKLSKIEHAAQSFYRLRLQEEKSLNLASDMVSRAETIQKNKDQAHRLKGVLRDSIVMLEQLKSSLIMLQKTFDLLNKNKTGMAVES
UniProt P21796: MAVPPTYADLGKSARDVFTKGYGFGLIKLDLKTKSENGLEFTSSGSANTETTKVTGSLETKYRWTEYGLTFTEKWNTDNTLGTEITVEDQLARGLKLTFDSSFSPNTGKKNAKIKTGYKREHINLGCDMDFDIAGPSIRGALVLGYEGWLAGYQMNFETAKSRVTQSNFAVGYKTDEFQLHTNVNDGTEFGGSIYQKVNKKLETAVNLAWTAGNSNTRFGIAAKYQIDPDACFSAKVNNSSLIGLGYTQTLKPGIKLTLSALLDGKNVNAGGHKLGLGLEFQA

In one test the target is GRAMD1C(ΔGRAM)-EGFP (UniProt Q8IYS0). The test can be described thus: affinity purification with mass spectrometry.
Another test has as its target GRAMD1C-EGFP (UniProt Q8IYS0). The test can be described thus: affinity purification with mass spectrometry.

Results are given in words; binding and its absence hold for the method and conditions named. In cells and extracts the contact can be indirect. A yes stands for co-enrichment or nearness to the bait. Other partners may have been found. For some assays here: A no says only that the protein was not detected with the bait.

Turning to VDAC1 (from UniProt P21796 1-283), the results for the binding result with GRAMD1C(ΔGRAM)-EGFP and with GRAMD1C-EGFP were “no binding” and “binds”, respectively.
